# From PMC9380774, “Mpe1 senses the binding of pre-mRNA and controls 3′ end processing by CPF” (Molecular Cell, 2022)
# These are yes or no findings as the source states them, for the method shown. For some of these results: Binding seen in cells or lysates may run through a third protein. Some results given as binding are weak or reduced against the parent protein; the word gives no strength. Tags and fused reporters may be left off the sequences shown.
# Key:
# [1] = target: T1, StrepII-tagged Mpe1 (Mpe1-SII) (S. cerevisiae), P35728; test: pull-down; Sf9 cells co-expressing Mpe1-SII with the partner; cleared lysate on Strep-Tactin resin in Buffer A (50 mM HEPES pH 8, 75 mM NaCl, 1 mM TCEP), eluted with desthiobiotin; SDS-PAGE stained with Instant Blue; details: remark: other sources report otherwise
# T1 chain: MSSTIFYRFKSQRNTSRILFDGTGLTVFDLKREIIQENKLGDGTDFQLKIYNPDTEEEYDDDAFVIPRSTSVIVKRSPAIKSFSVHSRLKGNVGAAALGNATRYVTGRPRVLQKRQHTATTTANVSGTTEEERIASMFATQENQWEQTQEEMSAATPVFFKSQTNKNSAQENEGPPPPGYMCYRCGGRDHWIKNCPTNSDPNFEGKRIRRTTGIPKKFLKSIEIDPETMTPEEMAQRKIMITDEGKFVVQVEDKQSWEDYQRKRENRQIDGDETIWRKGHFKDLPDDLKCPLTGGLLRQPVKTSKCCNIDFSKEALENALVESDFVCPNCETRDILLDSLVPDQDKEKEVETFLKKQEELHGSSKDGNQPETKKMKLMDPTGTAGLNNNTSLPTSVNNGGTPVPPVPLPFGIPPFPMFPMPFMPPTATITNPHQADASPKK
# [2] = target: T2, StrepII-tagged Mpe1 (Mpe1-SII) (S. cerevisiae) (UniProt P35728); test: as above
# T2 sequence: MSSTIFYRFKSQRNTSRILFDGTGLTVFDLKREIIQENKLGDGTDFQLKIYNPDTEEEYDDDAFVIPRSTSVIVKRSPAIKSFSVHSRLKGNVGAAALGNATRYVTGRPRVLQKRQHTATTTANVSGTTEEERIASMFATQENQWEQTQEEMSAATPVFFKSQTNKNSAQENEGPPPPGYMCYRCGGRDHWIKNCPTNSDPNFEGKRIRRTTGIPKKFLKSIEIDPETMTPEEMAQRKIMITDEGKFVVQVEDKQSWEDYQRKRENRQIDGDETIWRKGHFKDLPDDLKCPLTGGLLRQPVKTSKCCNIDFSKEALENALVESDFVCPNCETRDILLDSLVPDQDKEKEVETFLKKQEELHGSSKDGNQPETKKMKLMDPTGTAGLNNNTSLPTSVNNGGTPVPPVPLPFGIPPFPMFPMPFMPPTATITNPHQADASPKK
# [3] = target: T3, Cft2(S), residues 1-720 (S. cerevisiae, UniProt Q12102 1-720); test: cross-linking; polymerase module-Cft2(S)-Mpe1-RNA complex (0.5 mg/ml) with 2 mM sulfo-SDA for 2 h on ice, UV 365 nm for 15 min; 20 mM HEPES, 50 mM NaCl, 0.5 mM TCEP, pH 8.0; mass spectrometry, 1 % FDR on link level; both purified
# T3 construct: Cft2, S. cerevisiae, residues 1-720, lacks the disordered C-terminal region; also called Cft2(short); truncated version of Cft2; source: E. coli BL21 Star (DE3), purified (Ni-NTA, 3C cleavage, MonoQ, Superdex 200)
# T3 sequence (looked up): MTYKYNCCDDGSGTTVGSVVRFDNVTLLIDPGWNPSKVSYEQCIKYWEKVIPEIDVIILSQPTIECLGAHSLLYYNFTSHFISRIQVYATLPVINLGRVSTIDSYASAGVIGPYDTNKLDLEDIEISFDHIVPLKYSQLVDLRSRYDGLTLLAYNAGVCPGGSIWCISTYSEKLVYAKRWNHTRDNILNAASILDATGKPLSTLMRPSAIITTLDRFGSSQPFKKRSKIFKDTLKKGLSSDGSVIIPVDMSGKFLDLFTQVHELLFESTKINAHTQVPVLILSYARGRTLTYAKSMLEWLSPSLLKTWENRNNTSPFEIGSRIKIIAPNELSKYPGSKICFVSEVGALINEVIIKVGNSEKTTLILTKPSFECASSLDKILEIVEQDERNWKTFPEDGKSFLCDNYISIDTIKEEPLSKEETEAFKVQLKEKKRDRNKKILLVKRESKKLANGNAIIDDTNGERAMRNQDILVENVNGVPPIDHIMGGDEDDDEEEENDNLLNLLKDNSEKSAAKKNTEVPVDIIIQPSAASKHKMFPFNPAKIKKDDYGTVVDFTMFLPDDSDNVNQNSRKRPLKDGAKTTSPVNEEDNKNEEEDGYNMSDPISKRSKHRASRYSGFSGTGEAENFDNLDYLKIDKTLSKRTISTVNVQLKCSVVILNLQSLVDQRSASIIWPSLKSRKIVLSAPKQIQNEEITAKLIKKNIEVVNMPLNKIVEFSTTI
Binder,binding [1],also measured
"Yth1 (natural protein, S. cerevisiae, Yth1, S. cerevisiae, subunit of the polymerase module of CPF; E. coli codon-optimized gene (GeneArt); source: Sf9, baculovirus, co-expressed with Mpe1-SII, in lysate; also as subunit of the purified polymerase module (Sf9)) MSLIHPDTAKYPFKFEPFLRQEYSFSLDPDRPICEFYNSREGPKSCPRGPLCPKKHVLPIFQNKIVCRHWLRGLCKKNDQCEYLHEYNLRKMPECVFFSKNGYCTQSPDCQYLHIDPASKIPKCENYEMGFCPLGSSCPRRHIKKVFCQRYMTGFCPLGKDECDMEHPQFIIPDEGSKLRIKRDDEINTRKMDEEKERRLNAIINGEV",no binding,–
"Fip1, P45976 1-327 (protein) MSSSEDEDDKFLYGSDSELALPSSKRSRDDEADAGASSNPDIVKRQKFDSPVEETPATARDDRSDEDIYSDSSDDDSDSDLEVIISLGPDPTRLDAKLLDSYSTAATSSSKDVISVATDVSNTITKTSDERLITEGEANQGVTATTVKATESDGNVPKAMTGSIDLDKEGIFDSVGITTIDPEVLKEKPWRQPGANLSDYFNYGFNEFTWMEYLHRQEKLQQDYNPRRILMGLLSLQQQGKLNSANDTDSNLGNIIDNNNNVNNANMSNLNSNMGNSMSGTPNPPAPPMHPSFPPLPMFGSFPPFPMPGMMPPMNQQPNQNQNQNSK",no binding,–
"Cft1 (protein, UniProt Q06632 1-1357) MNVYDDVLDATVVSHSLATHFTTSDYEELLVVRTNILSVYRPTRDGKLYLTDEFKFHGLITDIGLIPQKDSPLSCLLLCTGVAKISILKFNTLTNSIDTLSLHYYEGKFKGKSLVELAKISTLRMDPGSSCALLFNNDIIAFLPFHVNKNDDDEEEEDEDENIDDSELIHSMNQKSQGTNTFNKRKRTKLGDKFTAPSVVLVASELYEGAKNIIDIQFLKNFTKPTIALLYQPKLVWAGNTTISKLPTQYVILTLNIQPAESATKIESTTIAFVKELPWDLHTIVPVSNGAIIVGTNELAFLDNTGVLQSTVLLNSFADKELQKTKIINNSSLEIMFREKNTTSIWIPSSKSKNGGSNNDETLLLMDLKSNIYYIQMEAEGRLLIKFDIFKLPIVNDLLKENSNPKCITRLNATNSNKNMDLFIGFGSGNALVLRLNNLKSTIETREAHNPSSGTNSLMDINDDDDEEMDDLYADEAPENGLTTNDSKGTVETVQPFDIELLSSLRNVGPITSLTVGKVSSIDDVVKGLPNPNKNEYSLVATSGNGSGSHLTVIQTSVQPEIELALKFISITQIWNLKIKGRDRYLITTDSTKSRSDIYESDNNFKLHKGGRLRRDATTVYISMFGEEKRIIQVTTNHLYLYDTHFRRLTTIKFDYEVIHVSVMDPYILVTVSRGDIKIFELEEKNKRKLLKVDLPEILNEMVITSGLILKSNMCNEFLIGLSKSQEEQLLFTFVTADNQIIFFTKDHNDRIFQLNGVDQLNESLYISTYQLGDEIVPDPSIKQVMINKLGHDNKEEYLTILTFGGEIYQYRKLPQRRSRFYRNVTRNDLAITGAPDNAYAKGVSSIERIMHYFPDYNGYSVIFVTGSVPYILIKEDDSTPKIFKFGNIPLVSVTPWSERSVMCVDDIKNARVYTLTTDNMYYGNKLPLKQIKISNVLDDYKTLQKLVYHERAQLFLVSYCKRVPYEALGEDGEKVIGYDENVPHAEGFQSGILLINPKSWKVIDKIDFPKNSVVNEMRSSMIQINSKTKRKREYIIAGVANATTEDTPPTGAFHIYDVIEVVPEPGKPDTNYKLKEIFQEEVSGTVSTVCEVSGRFMISQSQKVLVRDIQEDNSVIPVAFLDIPVFVTDSKSFGNLLIIGDAMQGFQFIGFDAEPYRMISLGRSMSKFQTMSLEFLVNGGDMYFAATDADRNVHVLKYAPDEPNSLSGQRLVHCSSFTLHSTNSCMMLLPRNEEFGSPQVPSFQNVGGQVDGSVFKIVPLSEEKYRRLYVIQQQIIDRELQLGGLNPRMERLANDFYQMGHSMRPMLDFNVIRRFCGLAIDRRKSIAQKAGRHAHFEAWRDIINIEFSMRSLCQGK",–,binding [2]: binds
"StrepII-tagged Mpe1 (Mpe1-SII) (natural protein, S. cerevisiae, Mpe1, S. cerevisiae, subunit of the nuclease module of CPF; no cleavage is told; also called WT Mpe1; Mpe1-3C-SII; source: Sf9, baculovirus; in lysate, and purified (Strep-Tactin, MonoQ)) MSSTIFYRFKSQRNTSRILFDGTGLTVFDLKREIIQENKLGDGTDFQLKIYNPDTEEEYDDDAFVIPRSTSVIVKRSPAIKSFSVHSRLKGNVGAAALGNATRYVTGRPRVLQKRQHTATTTANVSGTTEEERIASMFATQENQWEQTQEEMSAATPVFFKSQTNKNSAQENEGPPPPGYMCYRCGGRDHWIKNCPTNSDPNFEGKRIRRTTGIPKKFLKSIEIDPETMTPEEMAQRKIMITDEGKFVVQVEDKQSWEDYQRKRENRQIDGDETIWRKGHFKDLPDDLKCPLTGGLLRQPVKTSKCCNIDFSKEALENALVESDFVCPNCETRDILLDSLVPDQDKEKEVETFLKKQEELHGSSKDGNQPETKKMKLMDPTGTAGLNNNTSLPTSVNNGGTPVPPVPLPFGIPPFPMFPMPFMPPTATITNPHQADASPKK",–,binding [3]: no binding
